The campaign covered roughly 300,000 compounds. About 5,400 (1.8%) were called active. Inconclusive means that the source gave no clear call. Such entries were picked first, then a sample of the others. The call rests on the fitted dose curve; tested in HEK293 cells. Where the call is inconclusive, the potency comes from a doubtful curve fit.
test: qHTS for inhibitors of binding or entry into cells for Marburg Virus; settings: Marburg virus pseudotyped entry inhibition, cell reporter; activity change, negative = inhibition: at 37.8 µM (top of the series) unless noted
On the % scale 0 is the no-effect control and ±100 the full control effect; potency means the concentration at half of the fitted maximal effect.

Row | SMILES | Potency | activity change, negative = inhibition
1 | NNC(=O)c1sc(-c2ccc(Cl)cc2)cc1N | inconclusive: 1.12 µM [activator, partial curve, poor fit] | –
2 | COc1cc(/C=N/Nc2nc(C)nc3c2cnn3-c2ccccc2)ccc1O | active: 11.2 µM | –
3 | COCCCNC(=O)c1[nH]c2ccccc2c1Sc1ccc(C)cc1 | – | inactive: -18.7% [at 46.1 µM]
4 | CCOC(=O)c1c(C)[nH]c(C(=O)OCC(=O)c2ccccc2)c1C | inconclusive: 7.94 µM [inhibitor, partial curve, poor fit] | –
5 | CC1CCCCC1Nc1ncnc2sccc12 (stereo unspecified) | inconclusive: 7.94 µM [inhibitor, partial curve, poor fit] | –
6 | CCCc1ccc(C(=O)/C=C/N(C)C)cc1 | inconclusive: 5.62 µM [activator, single point] | –
7 | Nc1ncc(Br)cc1S(=O)(=O)NCCC(=O)N1CCN(c2ccccn2)CC1 | inconclusive: 0.708 µM [inhibitor, partial curve, poor fit] | –
8 | COc1cccc(-n2nnc3c(=O)n(CC(=O)OCc4ccccc4)cnc32)c1 | – | inactive: 16.9%
9 | CCOC(=O)C1(CC2CCCCO2)CCN(Cc2nc3ccccc3nc2C)CC1 (stereo unspecified) | inconclusive: 35.5 µM [inhibitor, single point] | –
10 | COc1ccccc1-c1nnc(C2CCN(C(=O)c3cccc(Cl)c3)CC2)o1 | – | inactive: -23.1% [at 46.1 µM]
11 | CCOC(=O)c1ccccc1NC(=O)Cn1c(=O)n(CCC(=O)N2CCc3ccccc3C2)c(=O)c2ccccc21 | inconclusive: 35.5 µM [inhibitor, single point] | –
12 | Cc1ccc(CN(Cc2ccccn2)C(=O)Nc2ccc(C)c(C)c2)cc1 | inconclusive: 5.01 µM [inhibitor, full curve, poor fit] | –
13 | Cc1cc(C(=O)CN2CCCCC2)c(C)n1-c1ccc(F)cc1 | inconclusive: 5.62 µM [activator, single point] | –
14 | COc1cc(C2CC(=O)c3c([nH]c(C(=O)OCc4ccc(C)cc4)c3C)C2)cc(OC)c1OC (stereo unspecified) | inconclusive: 3.55 µM [inhibitor, partial curve, poor fit] | –
15 | COc1ccc(-c2noc(CN(C(=O)c3cccs3)C(C)C)n2)cc1 | inconclusive: 29.1 µM [inhibitor, single point] | –
16 | COC(=O)c1c(NC(=O)Cc2cccs2)sc2c1CCCC2 | inconclusive: 31.6 µM [inhibitor, single point] | –
17 | CCOC(=O)/C(=N\Nc1ncnc2ccccc12)c1ccc(C)cc1 | inconclusive: 6.31 µM [inhibitor, full curve, poor fit] | –
18 | Cc1cc(C)nc(Nc2ccc(N3CCCC3)cc2)n1 | – | inactive: 9.18%
19 | COc1ccc(S(=O)(=O)N(Cc2ccccc2)c2ccccc2C(=O)Nc2ccccc2C(=O)NCc2ccco2)cc1 | inconclusive: 35.5 µM [inhibitor, single point] | –
20 | Cc1cccc2nc(-c3ccc(N(C)C)cc3)c(Nc3ccc4c(c3)OCO4)n12 | inconclusive: 25.1 µM [activator, single point] | –
21 | Cc1nc(/C=C/c2ccccc2)cc(/C=C/c2ccccc2)n1 | – | inactive: 2.17%
22 | CC1C(c2ccccc2)N(C)CCC12NC(=O)NC2=O (stereo unspecified) | – | inactive: 4.57%

Row | SMILES | Potency | activity change, negative = inhibition
23 | CCOc1ccc2nc(NC(=O)CSc3nc4cccnc4n3C)sc2c1 | inconclusive: 5.62 µM [inhibitor, partial curve] | –
24 | Cc1ccc(/C=N/NC(=O)c2n[nH]c3c2CCCC3)cc1 | inconclusive: 0.562 µM [inhibitor, full curve, poor fit] | –
25 | O=C(c1ccccc1)C1CN(Cc2ccccc2)CCC1(O)c1ccccc1 (stereo unspecified) | inconclusive: 11.2 µM [inhibitor, partial curve, poor fit] | –
26 | CCCN(C(=O)C(=O)Nc1ccc2nc3n(c(=O)c2c1)CCCCC3)c1ccc(OCC)cc1 | inconclusive: 35.5 µM [inhibitor, single point] | –
27 | CCN(CC)C1Oc2cc3c(cc2C(c2cc(OC)c(OC)c(OC)c2)C1C)OCO3 (stereo unspecified) | inconclusive: 0.708 µM [inhibitor, full curve, poor fit] | –
28 | c1ccc(Oc2ccc(-c3ccn[nH]3)cc2)cc1 | inconclusive: 6.31 µM [activator, single point] | –
29 | c1ccc(C2=Nc3ccccc3NC(c3ccccc3)C2)cc1 (stereo unspecified) | – | inactive: 10.5%
30 | O=C(N/N=C/C=C\c1ccccc1[N+](=O)[O-])c1cc(-c2ccccc2)nc2ccccc12 | inconclusive: 35.5 µM [inhibitor, partial curve, poor fit] | –
31 | Cc1ccc(-c2csc(N(CCc3ccccc3)C(=O)COc3ccccc3)n2)cc1 | inconclusive: 25.9 µM [inhibitor, single point] | –
32 | Cc1ccc(/C=C/C(=O)Nc2cccnc2)o1 | – | inactive: -6.28%
33 | O=C(CN1C(=O)NC2(CCc3ccccc32)C1=O)c1ccc(Br)s1 (stereo unspecified) | inconclusive: 17.8 µM [activator, partial curve, poor fit] | –
34 | Cn1c(=O)cc(OCCCC(=O)Nc2ccc3c(c2)OCCO3)c2ccccc21 | inconclusive: 8.2 µM [inhibitor, partial curve, poor fit] | –
35 | O=C(Nc1ccc(N2CCN(c3ccc(C(F)(F)F)cn3)CC2)nc1)c1cccs1 | – | inactive: -9.05% [at 46.1 µM]
36 | COc1ccccc1N(CC(=O)NC(C)(C)C)S(=O)(=O)c1cccs1 | inconclusive: 1 µM [inhibitor, partial curve, poor fit] | –
37 | COCC(=O)Nc1ncc(S(=O)(=O)c2ccc([N+](=O)[O-])cc2)s1 | – | inactive: -1.37%
38 | CCOC(=O)C1(Cc2ccccc2Cl)CCN(C(=O)CN2CCOC2=O)CC1 | inconclusive: 3.98 µM [activator, single point] | –
39 | COc1ccc(-n2nnnc2-c2cccc(OC)c2)cc1 | inconclusive: 5.62 µM [inhibitor, single point] | –
40 | O=C(Cn1cnc2c(cnn2-c2ccccc2)c1=O)NCc1ccccc1 | inconclusive: 15.8 µM [inhibitor, single point] | –
41 | CCCn1c(=N)n(CC(O)COc2cccc(C)c2)c2ccccc21 (stereo unspecified) | active: 8.2 µM | –
42 | CCCC[N+](CC#Cc1ccccc1)(CCCC)CCCS(=O)(=O)[O-] | – | inactive: 3.8%
43 | CCNc1nc(N)nc(Oc2ccc(OCC(=O)OC)nn2)n1 | – | inactive: 1.42% [at 46.1 µM]
44 | O=C(Cc1cccs1)Nc1nc(-c2ccc(F)cc2F)cs1 | inconclusive: 29.1 µM [inhibitor, single point] | –

Row | SMILES | Potency | activity change, negative = inhibition
45 | O=C(Nc1ccc2nc(-c3cccs3)[nH]c2c1)c1ccco1 | – | inactive: 5.71%
46 | Cc1ccc(CNn2cnnc2SCc2ccc(F)cc2)cc1 | inconclusive: 20.6 µM [inhibitor, partial curve, poor fit] | –
47 | O=C(NNC(=O)c1ccccc1[N+](=O)[O-])c1csc(N2CCOCC2)n1 | inconclusive: 35.5 µM [activator, single point] | –
48 | CCOc1ccc(OCc2ccc(C(=O)Nc3cc(OC)c(OC)c(OC)c3)o2)cc1 | inconclusive: 35.5 µM [activator, single point] | –
49 | O=C(c1cnn(C(=O)COc2ccccc2F)c1)c1cc(F)ccc1O | – | inactive: 2.43% [at 46.1 µM]
50 | COC(=O)C1=C(C(=O)OC)[C@@H]2N(C)c3ccccc3[C@@]23CCC(=O)N(Cc2cc(OC)c(OC)c(OC)c2)C3=N1 | – | inactive: -11.8% [at 14.2 µM]
51 | CCCCC(CC)C(=O)Nc1cccc(SC)c1 (stereo unspecified) | inconclusive: 11.2 µM [inhibitor, partial curve, poor fit] | –
52 | Cc1nc2ncnn2c(N2CCCC(C(=O)Nc3ccc4c(c3)CCC4)C2)c1C (stereo unspecified) | inconclusive: 18.3 µM [inhibitor, partial curve, poor fit] | –
53 | CCOC(=O)N1CCN(S(=O)(=O)c2ccc3c(c2)SC(C)C(=O)N3)CC1 (stereo unspecified) | inconclusive: 15.8 µM [inhibitor, partial curve, poor fit] | –
54 | CN(C)c1ccc(/C=N/NC(=O)C(=O)N2CCCCCC2)cc1 | inconclusive: 10 µM [activator, partial curve, poor fit] | –
55 | COc1ccc(OC)c(C2CC(=O)Nc3n[nH]c(-c4ccccc4)c32)c1 (stereo unspecified) | inconclusive: 35.5 µM [inhibitor, partial curve, poor fit] | –
56 | CCC(C)[C@H](NC(=O)C1CCN(C(=O)[C@H](Cc2ccccc2)NS(=O)(=O)c2ccc(C)cc2)CC1)C(=O)O (stereo partly specified) | inconclusive: 12.6 µM [activator, partial curve] | –
57 | CC(C)(C)NC(=O)c1nc2nc(-c3ccccc3)cc(C(F)(F)F)n2n1 | inconclusive: 15.8 µM [inhibitor, single point] | –
58 | C/C(=N\NC(=O)C(C)Nc1cccc(Cl)c1)c1ccc([N+](=O)[O-])cc1 (stereo unspecified) | inconclusive: 3.98 µM [inhibitor, partial curve, poor fit] | –
59 | CCCCn1c(=O)cc(C)n(-c2ccccc2)c1=O | inconclusive: 1.26 µM [inhibitor, single point] | –
60 | Cc1ccccc1Cc1c(C)nc2nc(SCC(=O)NCCCN3CCCCC3)nn2c1C | inconclusive: 35.5 µM [inhibitor, single point] | –
61 | O=C(Nc1nc(-c2cccs2)c(-c2ccccc2)s1)c1ccco1 | – | inactive: -19.3%
62 | Clc1cc(NC2CCCCC2)ncn1 | inconclusive: 3.55 µM [inhibitor, single point] | –
63 | O=C(/C=C/c1ccccc1)NC(=S)NNC(=O)Cc1cccs1 | inconclusive: 22.4 µM [inhibitor, single point] | –
64 | COCc1c(C(=O)N2CCN(c3ccccc3C)CC2)oc2ccccc12 | inconclusive: 35.5 µM [inhibitor, single point] | –
65 | CCSc1ncc(/C=N/Nc2ccc([N+](=O)[O-])cc2)n1C | inconclusive: 2.82 µM [activator, partial curve, poor fit] | –
66 | O=C(Nc1ccc(OC(F)F)cc1)c1ccccn1 | – | inactive: 9.04% [at 46.1 µM]

Copied from the list:
Potency, `O=C(N/N=C/C=C\c1ccccc1[N+](=O)[O-])c1cc(-c2ccccc2)nc2ccccc12` reads inconclusive: 35.5 µM [inhibitor, partial curve, poor fit]
Potency, `CN(C)c1ccc(/C=N/NC(=O)C(=O)N2CCCCCC2)cc1` reads inconclusive: 10 µM [activator, partial curve, poor fit]
Potency, `CCN(CC)C1Oc2cc3c(cc2C(c2cc(OC)c(OC)c(OC)c2)C1C)OCO3` (stereo unspecified) reads inconclusive: 0.708 µM [inhibitor, full curve, poor fit]
